For at least one compound, name, drawing or mass did not settle the structure.
Columns and labels:
p-H2AX = assay: SCNP p-H2AX induction in CyclinA2- and CyclinA2+ cells of primary AML samples treated with genotoxins; assay type: cell-based, human; settings: primary AML samples after 48 h growth factors
[1] = test system: MCL patient with KIT (V654A) and FcεR1 (L188F) mutations; settings: cytarabine-based induction therapy combined with dasatinib; cited from earlier work

## Cn1nnc2c(C(N)=O)ncn2c1=O [temozolomide, Temozolomide]
p-H2AX
  induction of p-H2AX in CyclinA2- (non-cycling) or Cyclin A2+ (cycling) cells: induced higher p-H2AX in cycling cells with measurable but lower p-H2AX induction in non-cycling cells

## Cc1nc(Nc2ncc(C(=O)Nc3c(C)cccc3Cl)s2)cc(N2CCN(CCO)CC2)n1 [dasatinib]
[1]
  patient response: did not respond

From patent publication US20140017678A1, “PATHWAY CHARACTERIZATION OF CELLS” (Nodality, Inc., priority 2012, published 2014)
